Data from patent US12325867B2, “Organoid produced using carrier for cell culture, and method for evaluating drug toxicity using same” (Korea Research Institute of Chemical Technology, priority 2018, dated 2025).

Tested on: artificial myocardial structure (cardiac organoid)
Experiment: contractile force-based cardiac toxicity assessment using the artificial myocardial structure
Type: cell-based, human
Details: group treated with 100 nM
From the text: Furthermore, after additionally treating an artificial myocardial structure prepared by coculturing gelatin oil capsules and cardiomyocytes with various drugs, contractile forces of the drug-treated artificial myocardial structure were checked.

## COC(=O)C1=C(C)NC(C)=C(C(=O)OC)C1c1ccccc1[N+](=O)[O-] [Nifedipine]
  beat rates: changed into slow beat rates
  contractile forces: weakened
